{"source": "PubChem BioAssay AID652272 | Drosophila RNAi Screening Center | 2013", "assay": "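Finding fly genes that regulate Hedgehog signal transduction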 (primary screen)", "cell system": "Drosophila clone 8 (Cl8) cells", "knock-down reagent": "long dsRNA against Drosophila genes", "measured": "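Plate reader light from a firefly reporter under a ptc promoter fragment that responds to Hedgehog, with Renilla light as transfection reference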", "direction": "firefly Hh reporter signal: higher = more ptc reporter light; Renilla reference signal: higher = more Renilla control light", "rule for the call": "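Called a hit if the two-replicate mean z-score lies below -2 or above +3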", "calls": "active = hit: reporter lowered or raised; inactive = not a hit", "note": "The deposit covers about 21,000 reagents; below is an unselected part of those with a known target gene and a result. Of all reagents, 503 (2.4%) got an active call. 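Raw plate light values, not normalised; calls rest on replicate z-scores that were not deposited; hits include reporter decreases as well as increases.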 A plus sign joins genes that one reagent is predicted to hit. Reagent sequences are not shown. Not given: the amount of reagent, the time to read-out."}
{"target gene":"ato (atonal)","dsRNA":"DRSC16904","firefly Hh reporter signal, replicate 1":58420,"firefly Hh reporter signal, replicate 2":87400,"Renilla reference signal, replicate 1":1648,"Renilla reference signal, replicate 2":2633,"Outcome":"inactive"}
{"target gene":"E(spl)m3-HLH (Enhancer of split m3, helix-loop-helix)","dsRNA":"DRSC16694","firefly Hh reporter signal, replicate 1":2.49e5,"firefly Hh reporter signal, replicate 2":37955,"Renilla reference signal, replicate 1":15977,"Renilla reference signal, replicate 2":1434,"Outcome":"inactive"}
{"target gene":"Sp1","dsRNA":"DRSC17622","firefly Hh reporter signal, replicate 1":4.26e5,"firefly Hh reporter signal, replicate 2":1.43e5,"Renilla reference signal, replicate 1":25821,"Renilla reference signal, replicate 2":3928,"Outcome":"inactive"}
{"target gene":"Sp1","dsRNA":"DRSC18717","firefly Hh reporter signal, replicate 1":60155,"firefly Hh reporter signal, replicate 2":1.32e5,"Renilla reference signal, replicate 1":1522,"Renilla reference signal, replicate 2":5467,"Outcome":"inactive"}
{"target gene":"Hao + Pex6","dsRNA":"DRSC06097","firefly Hh reporter signal, replicate 1":90102,"firefly Hh reporter signal, replicate 2":44396,"Renilla reference signal, replicate 1":3430,"Renilla reference signal, replicate 2":1416,"Outcome":"inactive"}
{"target gene":"Hao + Pex6","dsRNA":"DRSC06704","firefly Hh reporter signal, replicate 1":73602,"firefly Hh reporter signal, replicate 2":43668,"Renilla reference signal, replicate 1":1657,"Renilla reference signal, replicate 2":3643,"Outcome":"inactive"}
{"target gene":"squ (squash)","dsRNA":"DRSC01549","firefly Hh reporter signal, replicate 1":1.12e5,"firefly Hh reporter signal, replicate 2":2.72e5,"Renilla reference signal, replicate 1":3094,"Renilla reference signal, replicate 2":11607,"Outcome":"inactive"}
{"target gene":"CG10089","dsRNA":"DRSC09694","firefly Hh reporter signal, replicate 1":56373,"firefly Hh reporter signal, replicate 2":20359,"firefly Hh reporter signal, replicate 3":38144,"Renilla reference signal, replicate 1":2724,"Renilla reference signal, replicate 2":3018,"Outcome":"inactive"}
{"target gene":"CG10089","dsRNA":"DRSC09695","firefly Hh reporter signal, replicate 1":56726,"firefly Hh reporter signal, replicate 2":41120,"firefly Hh reporter signal, replicate 3":53729,"Renilla reference signal, replicate 1":4066,"Renilla reference signal, replicate 2":3290,"Outcome":"inactive"}
{"target gene":"ca (claret)","dsRNA":"DRSC15305","firefly Hh reporter signal, replicate 1":99063,"firefly Hh reporter signal, replicate 2":91746,"Renilla reference signal, replicate 1":1892,"Renilla reference signal, replicate 2":2555,"Outcome":"inactive"}
{"target gene":"ca (claret)","dsRNA":"DRSC15306","firefly Hh reporter signal, replicate 1":1.06e5,"firefly Hh reporter signal, replicate 2":1.19e5,"Renilla reference signal, replicate 1":2544,"Renilla reference signal, replicate 2":8515,"Outcome":"inactive"}
{"target gene":"ca (claret)","dsRNA":"DRSC16314","firefly Hh reporter signal, replicate 1":98252,"firefly Hh reporter signal, replicate 2":1.60e5,"Renilla reference signal, replicate 1":2418,"Renilla reference signal, replicate 2":7680,"Outcome":"inactive"}
{"target gene":"CG3662","dsRNA":"DRSC00626","firefly Hh reporter signal, replicate 1":90472,"firefly Hh reporter signal, replicate 2":61290,"Renilla reference signal, replicate 1":3655,"Renilla reference signal, replicate 2":2528,"Outcome":"inactive"}
{"target gene":"CG30471","dsRNA":"DRSC07096","firefly Hh reporter signal, replicate 1":89146,"firefly Hh reporter signal, replicate 2":62523,"Renilla reference signal, replicate 1":4260,"Renilla reference signal, replicate 2":2541,"Outcome":"inactive"}
{"target gene":"pHCl-2 (pH-sensitive chloride channel 2)","dsRNA":"DRSC14306","firefly Hh reporter signal, replicate 1":1.49e5,"firefly Hh reporter signal, replicate 2":99616,"Renilla reference signal, replicate 1":5959,"Renilla reference signal, replicate 2":954,"Outcome":"inactive"}
{"target gene":"CG8401","dsRNA":"DRSC07165","firefly Hh reporter signal, replicate 1":1.24e5,"firefly Hh reporter signal, replicate 2":84825,"Renilla reference signal, replicate 1":5431,"Renilla reference signal, replicate 2":3920,"Outcome":"inactive"}
{"target gene":"CG43102","dsRNA":"DRSC13261","firefly Hh reporter signal, replicate 1":54045,"firefly Hh reporter signal, replicate 2":2.79e5,"Renilla reference signal, replicate 1":10784,"Renilla reference signal, replicate 2":6560,"Outcome":"inactive"}
{"target gene":"CG43102","dsRNA":"DRSC14797","firefly Hh reporter signal, replicate 1":8.40e5,"firefly Hh reporter signal, replicate 2":1.93e5,"Renilla reference signal, replicate 1":44144,"Renilla reference signal, replicate 2":5541,"Outcome":"inactive"}
{"target gene":"CG43102","dsRNA":"DRSC16239","firefly Hh reporter signal, replicate 1":6.30e5,"firefly Hh reporter signal, replicate 2":1.10e5,"Renilla reference signal, replicate 1":28805,"Renilla reference signal, replicate 2":3372,"Outcome":"inactive"}
{"target gene":"PheRS-m (Phenylalanyl-tRNA synthetase, mitochondrial)","dsRNA":"DRSC05915","firefly Hh reporter signal, replicate 1":1.31e5,"firefly Hh reporter signal, replicate 2":91457,"Renilla reference signal, replicate 1":5921,"Renilla reference signal, replicate 2":3389,"Outcome":"inactive"}
{"target gene":"rudhira","dsRNA":"DRSC19821","firefly Hh reporter signal, replicate 1":68042,"firefly Hh reporter signal, replicate 2":45692,"Renilla reference signal, replicate 1":1952,"Renilla reference signal, replicate 2":1133,"Outcome":"inactive"}
